Source: paper PMC11111408, “Concurrent inhibition of oncogenic and wild-type RAS-GTP for cancer therapy” (Nature, 2024)
Several values for one entry are separate records, joined by “and”; a condition that tells them apart may be missing. Equal values may be shown once. Further values from the same series stand in other lists.

Test system: Pa16C cells expressing MEK1 mutants
Assay: Proliferation (Calcein AM) of Pa16C cells expressing MEK1 mutants
Assay type: cell-based, human
[1] = MEK1E102-I103del, inhibitor 300.000 nM
[2] = MEK1S218D/S222D, inhibitor 300.000 nM

O=C(Nc1ccc2[nH]nc(-c3ccncc3)c2c1)[C@@H]1CCN(CC(=O)N2CCN(c3ccc(-c4ncccn4)cc3)CC2)C1 [SCH772984]
Proliferation of Pa16C cells expressing MEK1 mutant constructs [1]: 12.6 and 13.3 and 9.3
Proliferation of Pa16C cells expressing MEK1 mutant constructs (MEK1Q56P, inhibitor 11.111 nM): 98.6 and 103.2 and 83.8 and 53.6
Proliferation of Pa16C cells expressing MEK1 mutant constructs [2]: 8.9 and 15.1 and 8.4 and 11.1
Proliferation of Pa16C cells expressing MEK1 mutant constructs (MEK1WT, inhibitor 33.333 nM): 21.9 and 15.2 and 11.4

C#Cc1c(F)ccc2cc(O)cc(-c3ncc4c(N5CC6CCC(C5)N6)nc(OC[C@@]56CCCN5C[C@H](F)C6)nc4c3F)c12 [MRTX1133, reference compound]
Proliferation of Pa16C cells expressing MEK1 mutant constructs (MEK1E102-I103del, inhibitor 11.111 nM): 89.2 and 88.5 and 73.09 and 79.09
Proliferation of Pa16C cells expressing MEK1 mutant constructs (MEK1E102-I103del, inhibitor 33.333 nM): 81.6 and 79 and 79.45 and 70.91
Proliferation of Pa16C cells expressing MEK1 mutant constructs (MEK1E102-I103del, inhibitor 100.000 nM): 76.6 and 64.2 and 72.13 and 59.86
Proliferation of Pa16C cells expressing MEK1 mutant constructs [1]: 68.38 and 60.2 and 68.17 and 51.31
Proliferation of Pa16C cells expressing MEK1 mutant constructs (MEK1K57N, inhibitor 11.111 nM): 119.3 and 129.8 and 106.44 and 131.83
Proliferation of Pa16C cells expressing MEK1 mutant constructs (MEK1K57N, inhibitor 33.333 nM): 125 and 125.9 and 106.12 and 113.61
Proliferation of Pa16C cells expressing MEK1 mutant constructs (MEK1K57N, inhibitor 100.000 nM): 100.9 and 105.3 and 97.72 and 104.41
Proliferation of Pa16C cells expressing MEK1 mutant constructs (MEK1K57N, inhibitor 300.000 nM): 91.44 and 89.23
Proliferation of Pa16C cells expressing MEK1 mutant constructs (MEK1Q56P, inhibitor 3.704 nM): 122.8 and 117.3 and 118.96
Proliferation of Pa16C cells expressing MEK1 mutant constructs (MEK1Q56P, inhibitor 11.111 nM): 103.07 and 114.7 and 124.6 and 101.53
Proliferation of Pa16C cells expressing MEK1 mutant constructs (MEK1Q56P, inhibitor 33.333 nM): 90.07 and 113.1 and 117.1 and 94.52
Proliferation of Pa16C cells expressing MEK1 mutant constructs (MEK1Q56P, inhibitor 100.000 nM): 81.17 and 110.9 and 101.9 and 96.97
Proliferation of Pa16C cells expressing MEK1 mutant constructs (MEK1Q56P, inhibitor 300.000 nM): 70.45 and 77
Proliferation of Pa16C cells expressing MEK1 mutant constructs (MEK1S218D/S222D, inhibitor 11.111 nM): 98.22 and 105.68 and 105.56 and 94.99
Proliferation of Pa16C cells expressing MEK1 mutant constructs (MEK1S218D/S222D, inhibitor 33.333 nM): 91.91 and 105.1 and 110.14 and 94.7
Proliferation of Pa16C cells expressing MEK1 mutant constructs (MEK1S218D/S222D, inhibitor 100.000 nM): 92.41 and 101.61 and 95.02 and 87.17
Proliferation of Pa16C cells expressing MEK1 mutant constructs [2]: 80.27 and 87.77 and 106.23 and 72.96
Proliferation of Pa16C cells expressing MEK1 mutant constructs (MEK1WT, inhibitor 3.704 nM): 80.73 and 60.14
Proliferation of Pa16C cells expressing MEK1 mutant constructs (MEK1WT, inhibitor 11.111 nM): 55.7 and 50.1 and 39.85 and 72.69 and 39.08
Proliferation of Pa16C cells expressing MEK1 mutant constructs (MEK1WT, inhibitor 33.333 nM): 36.7 and 41.6 and 30.08 and 43.46 and 28.32
Proliferation of Pa16C cells expressing MEK1 mutant constructs (MEK1WT, inhibitor 100.000 nM): 29.7 and 29.6 and 28.6 and 30.61 and 24.23
Proliferation of Pa16C cells expressing MEK1 mutant constructs (MEK1WT, inhibitor 300.000 nM): 21.32 and 19.79 and 23.54
